Measured values published in paper PMC6611441.
Results are given in words; binding and its absence hold for the method and conditions named. Each block holds one substance with its values, some of them ahead of it.

The chains behind the UniProt entries cited, without tags or fusion partners. Where a name states a change or a piece, a line headed by the entry shows the natural chain unless it says otherwise. A line that says so, or that is headed by a name, gives the form on record, which may keep a tag or linker.
HTRA1 A173T, myc-His6 tagged (Q92743, form named): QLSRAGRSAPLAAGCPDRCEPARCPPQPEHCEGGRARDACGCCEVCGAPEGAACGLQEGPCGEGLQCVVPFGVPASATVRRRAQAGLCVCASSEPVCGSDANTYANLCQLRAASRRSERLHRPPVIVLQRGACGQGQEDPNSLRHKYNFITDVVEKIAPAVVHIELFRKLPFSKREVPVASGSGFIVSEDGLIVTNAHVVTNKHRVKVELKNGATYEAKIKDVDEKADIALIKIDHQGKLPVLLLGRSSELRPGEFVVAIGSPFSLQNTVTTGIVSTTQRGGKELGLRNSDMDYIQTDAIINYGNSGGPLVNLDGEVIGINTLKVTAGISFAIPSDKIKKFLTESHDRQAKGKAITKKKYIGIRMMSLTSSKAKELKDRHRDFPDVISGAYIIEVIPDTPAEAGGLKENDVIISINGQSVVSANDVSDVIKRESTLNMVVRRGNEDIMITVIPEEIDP
HTRA1 R166C, myc-His6 tagged (Q92743, form named): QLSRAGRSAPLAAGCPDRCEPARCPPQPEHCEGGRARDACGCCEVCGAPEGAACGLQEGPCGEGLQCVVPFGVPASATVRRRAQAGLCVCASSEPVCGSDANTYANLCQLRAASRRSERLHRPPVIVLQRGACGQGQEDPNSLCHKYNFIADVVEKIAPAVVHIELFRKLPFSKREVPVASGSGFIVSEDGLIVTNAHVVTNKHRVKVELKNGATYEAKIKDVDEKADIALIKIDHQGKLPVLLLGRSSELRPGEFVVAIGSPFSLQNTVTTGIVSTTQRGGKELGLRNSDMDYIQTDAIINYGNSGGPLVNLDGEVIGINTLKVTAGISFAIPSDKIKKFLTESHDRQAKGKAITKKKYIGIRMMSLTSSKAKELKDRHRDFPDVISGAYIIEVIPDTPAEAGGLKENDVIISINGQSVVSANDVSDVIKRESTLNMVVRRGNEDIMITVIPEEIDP
HTRA1 Y169E/F171E, myc-His6 tagged (Q92743, form named): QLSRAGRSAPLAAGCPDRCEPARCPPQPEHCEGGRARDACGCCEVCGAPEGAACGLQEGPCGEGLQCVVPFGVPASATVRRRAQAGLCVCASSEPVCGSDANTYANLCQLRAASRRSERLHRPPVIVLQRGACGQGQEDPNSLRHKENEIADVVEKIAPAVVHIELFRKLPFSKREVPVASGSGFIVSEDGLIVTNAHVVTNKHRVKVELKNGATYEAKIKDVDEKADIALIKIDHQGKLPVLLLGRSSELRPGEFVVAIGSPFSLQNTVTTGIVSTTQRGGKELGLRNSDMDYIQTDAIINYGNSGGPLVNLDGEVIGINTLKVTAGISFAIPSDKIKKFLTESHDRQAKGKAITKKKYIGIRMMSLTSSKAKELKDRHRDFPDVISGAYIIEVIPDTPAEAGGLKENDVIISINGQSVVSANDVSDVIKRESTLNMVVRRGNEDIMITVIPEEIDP
HTRA1 A173P, myc-His6 tagged (Q92743, form named): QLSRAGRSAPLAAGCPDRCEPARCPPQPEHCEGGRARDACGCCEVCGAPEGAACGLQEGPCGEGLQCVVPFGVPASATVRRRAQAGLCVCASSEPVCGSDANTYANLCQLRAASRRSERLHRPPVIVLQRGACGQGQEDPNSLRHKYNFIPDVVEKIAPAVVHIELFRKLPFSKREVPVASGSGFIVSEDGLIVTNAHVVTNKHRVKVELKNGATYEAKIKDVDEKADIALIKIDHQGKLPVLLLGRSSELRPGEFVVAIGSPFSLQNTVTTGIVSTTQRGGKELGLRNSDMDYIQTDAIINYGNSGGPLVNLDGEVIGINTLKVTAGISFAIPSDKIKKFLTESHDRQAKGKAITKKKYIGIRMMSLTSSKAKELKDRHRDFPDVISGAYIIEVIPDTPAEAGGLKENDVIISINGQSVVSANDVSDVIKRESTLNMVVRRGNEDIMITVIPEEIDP
HTRA1 G295R, myc-His6 tagged (Q92743, form named): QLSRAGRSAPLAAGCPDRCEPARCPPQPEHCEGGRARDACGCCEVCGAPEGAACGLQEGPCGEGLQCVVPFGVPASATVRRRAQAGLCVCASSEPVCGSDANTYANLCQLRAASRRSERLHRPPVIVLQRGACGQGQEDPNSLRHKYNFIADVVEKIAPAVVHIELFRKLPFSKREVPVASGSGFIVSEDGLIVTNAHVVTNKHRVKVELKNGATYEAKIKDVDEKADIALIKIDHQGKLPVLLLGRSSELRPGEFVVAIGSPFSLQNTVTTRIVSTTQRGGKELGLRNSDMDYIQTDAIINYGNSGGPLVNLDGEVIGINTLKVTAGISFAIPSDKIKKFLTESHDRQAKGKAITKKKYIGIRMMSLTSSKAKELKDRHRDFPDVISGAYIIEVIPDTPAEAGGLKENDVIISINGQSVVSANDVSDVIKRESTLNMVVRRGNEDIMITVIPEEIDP
HTRA1 R166L, myc-His6 tagged (Q92743, form named): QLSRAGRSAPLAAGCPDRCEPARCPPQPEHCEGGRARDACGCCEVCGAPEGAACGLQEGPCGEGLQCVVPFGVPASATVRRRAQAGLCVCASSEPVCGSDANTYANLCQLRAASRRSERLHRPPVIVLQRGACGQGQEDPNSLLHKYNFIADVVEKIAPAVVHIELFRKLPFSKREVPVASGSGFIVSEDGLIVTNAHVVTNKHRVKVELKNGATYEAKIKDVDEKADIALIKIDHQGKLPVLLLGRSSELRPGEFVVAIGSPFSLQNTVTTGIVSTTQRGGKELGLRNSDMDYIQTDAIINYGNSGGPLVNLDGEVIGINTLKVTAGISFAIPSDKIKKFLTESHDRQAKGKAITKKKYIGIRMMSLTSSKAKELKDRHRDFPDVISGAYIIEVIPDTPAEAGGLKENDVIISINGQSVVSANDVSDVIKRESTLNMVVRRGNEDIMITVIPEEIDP

Key:
Test in all cases: SEC; Superdex 200 10/300 GL, 100 mM Tris-HCl pH 8.0, 150 mM NaCl; samples pre-incubated at 37°C for 30 min, injected at 500 ng/μl; fractions read by SDS-PAGE (Coomassie); self-association, trimer against monomer; both purified
[1] = target: HTRA1 A173T, myc-His6 tagged (UniProt Q92743)
[2] = target: HTRA1 R166C, myc-His6 tagged (UniProt Q92743)
[3] = target: HTRA1 Y169E/F171E, myc-His6 tagged (UniProt Q92743)
[4] = target: HTRA1 A173P, myc-His6 tagged (UniProt Q92743)
[5] = target: HTRA1 G295R, myc-His6 tagged (UniProt Q92743)
[6] = target: HTRA1 R166L, myc-His6 tagged (UniProt Q92743)

Substance: HTRA1 R166C, myc-His6 tagged (from UniProt Q92743 23-480) (enzyme)
binding [2]: no binding (tested: 500 ng/μl)

Substance: HTRA1 Y169E/F171E, myc-His6 tagged (from UniProt Q92743 23-480) (enzyme)
binding [3]: no binding (tested: 500 ng/μl)

Substance: HTRA1 G295R, myc-His6 tagged (from UniProt Q92743 23-480) (enzyme)
binding [5]: no binding (tested: 500 ng/μl)

Substance: HTRA1 R166L, myc-His6 tagged (from UniProt Q92743 23-480) (enzyme)
binding [6]: no binding (tested: 500 ng/μl)

Next, values leading:

binding [1]: no binding (tested: 500 ng/μl)
Substance: HTRA1 A173T, myc-His6 tagged (from UniProt Q92743 23-480) (enzyme)

binding [4]: no binding (tested: 500 ng/μl)
Substance: HTRA1 A173P, myc-His6 tagged (from UniProt Q92743 23-480) (enzyme)
